Laboratory results from paper PMC10728895 (ACS Chemical Biology, 2023).

Experiment: general procedure: Fmoc solid-phase peptide synthesis; Fmoc-Lys(Boc)-Wang resin (0.64 mmol/g); DIC/Oxyma Pure
Settings: whole synthesis, analytical HPLC, detection at 220 nm; LC-MS, scale of the general procedure 50 μmol

Row | Substance | final HPLC purity [%]
1 | Ac-WBDDEFAAIBARHGNELRELADK-OH | 99
2 | Ac-WBDDEFAAIBAVHGNELRELADK-OH | 97
3 | Ac-WBDDEFAAIBAVHGNELRELARK-OH | 99
4 | Ac-WBDDEFAAIBAVHGNELRELRDK-OH | 99
5 | Ac-WBDDEFAAIBAVHGNELRRLADK-OH | 99
6 | Ac-WBDDEFAAIBAVHGNRLRELADK-OH | 99
7 | Ac-WBDDEFAAIBAVHGRELRELADK-OH | 99
8 | Ac-WBDDEFAAIBRVHGNELRELADK-OH | 97
9 | Ac-WBDDEFARIBAVHGNELRELADK-OH | 99
10 | Ac-WBDDEFRAIBAVHGNELRELADK-OH | 99
11 | Ac-WBDDRFAAIBAVHGNELRELADK-OH | 99
12 | Ac-WBDNEFAAIBAVHGRQLRRLANK-OH | 97
13 | Ac-WBDNEFAAIBAVHGRQLRRLARK-OH | 98
14 | Ac-WBDREFAAIBAVHGNELRELADK-OH | 99
15 | Ac-WBNNEFAAIBAVHGRQLRRLANK-OH | 98
16 | Ac-WBNNEFAAIBAVHGRQLRRLARK-OH | 97
17 | Ac-WBNNEFAXIBAXHGRQLRRLARK-OH | 98
18 | Ac-WBNNEFXAIBXVHGRQLRRLARK-OH | 96
19 | Ac-WBNXEFAXIBAVHGRQLRRLARK-OH | 94

Row | Substance | final HPLC purity [%]
20 | Ac-WBRDEFAAIBAVHGNELRELADK-OH | 99
21 | Ac-WBRDEFAAIBRVHGNELRELADK-OH | 98
22 | Ac-WBRDEFAAIBRVHGXELRXLADK-OH | 93
23 | Ac-WBRDEFRAIBRVHGNELRELADK-OH | 99
24 | Ac-WBRDEFRAIBRVHGXELRXLADK-OH | 99
25 | Ac-WBRNEFAAIBRVHGNQLRELANK-OH | 98
26 | Ac-WBRNEFAAIBRVHGXQLRXLANK-OH | 98
27 | Ac-WBRNEFRAIBRVHGNQLRELANK-OH | 98
28 | Ac-WBRNEFRAIBRVHGXQLRXLANK-OH | 98
29 | Ac-WBRNQFAAIBRVHGNQLRELANK-OH | 99
30 | Ac-WBRNQFAAIBRVHGXQLRXLANK-OH | 99
31 | Ac-WBRNQFRAIBRVHGNQLRELANK-OH | 99
32 | Ac-WBRNQFRAIBRVHGXQLRXLANK-OH | 99
33 | Ac-WBRREFRRIBRVHGNELRELADK-OH | 98
34 | Ac-WBRREFRRIBRVHGRELRELADK-OH | 99
35 | Ac-WBRXEFAXIBRVHGNELRELADK-OH | 95
36 | Ac-WBRXEFRXIBRVHGNELRELADK-OH | 99
37 | Ac-WBXNEFXAIBAVHGRQLRRLARK-OH | 95
38 | FAM-WBDDEFAAIBAVHGNELRELADK-OH | 95

Row | Substance | final HPLC purity [%]
39 | FAM-WBDNEFAAIBAVHGRQLRRLANK-OH | 96
40 | FAM-WBDNEFAAIBAVHGRQLRRLARK-OH | 97
41 | FAM-WBNNEFAAIBAVHGRQLRRLANK-OH | 97
42 | FAM-WBNNEFAAIBAVHGRQLRRLARK-OH | 98
43 | FAM-WBNNEFAXIBAXHGRQLRRLARK-OH | 95
44 | FAM-WBNNEFXAIBXVHGRQLRRLARK-OH | 95
45 | FAM-WBNXEFAXIBAVHGRQLRRLARK-OH | 95
46 | FAM-WBRDEFAAIBRVHGNELRELADK-OH | 95
47 | FAM-WBRDEFAAIBRVHGXELRXLADK-OH | 93
48 | FAM-WBRDEFRAIBRVHGNELRELADK-OH | 97
49 | FAM-WBRDEFRAIBRVHGXELRXLADK-OH | 94
50 | FAM-WBRNQFAAIBRVHGNQLRELANK-OH | 94
51 | FAM-WBRNQFAAIBRVHGXQLRXLANK-OH | 96
52 | FAM-WBRNQFRAIBRVHGNQLRELANK-OH | 99
53 | FAM-WBRNQFRAIBRVHGXQLRXLANK-OH | 96
54 | FAM-WBRXEFAXIBRVHGNELRELADK-OH | 95
55 | FAM-WBRXEFRXIBRVHGNELRELADK-OH | 94
56 | FAM-WBXNEFXAIBAVHGRQLRRLARK-OH | 97
